Measurements taken from PubChem BioAssay AID2517 (National Center for Advancing Translational Sciences (NCATS), 2010).
The campaign covered roughly 350,000 compounds. About 1,200 (0.34%) were called active. The shares of active, inactive and inconclusive entries below differ from those in the screen. Calls follow the shape of the dose curve; as a rule, active = well fitted inhibition curve with a large enough effect; inconclusive = small, poorly fitted or top-dose-only effect; inactive = no such curve, though single readings can be large or run the other way. Where the call is inconclusive, the potency comes from a doubtful curve fit.

Chains of the proteins cited; added tags and fusions are not shown.
UniProt P27695, whole entry, looked up: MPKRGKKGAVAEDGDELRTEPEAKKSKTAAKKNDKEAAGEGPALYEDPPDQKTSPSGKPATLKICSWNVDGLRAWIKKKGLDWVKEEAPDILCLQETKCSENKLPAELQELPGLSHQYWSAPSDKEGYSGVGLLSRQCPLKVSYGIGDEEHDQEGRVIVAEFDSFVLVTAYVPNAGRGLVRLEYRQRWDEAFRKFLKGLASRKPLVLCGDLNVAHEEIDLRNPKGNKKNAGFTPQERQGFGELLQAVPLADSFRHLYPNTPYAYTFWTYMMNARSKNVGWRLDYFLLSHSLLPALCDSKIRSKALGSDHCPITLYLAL

Target: DNA repair nuclease/redox regulator APEX1 (Homo sapiens) (UniProt P27695)
Assay: qHTS Assay for Inhibitors of the Human Apurinic/apyrimidinic Endonuclease 1 (APE1); also: nearly all actives have a fitted effect of over 55% in size
Details: recombinant APE1, TAMRA/BHQ-2 abasic DNA cleavage fluorescence; series mostly up to 65.8 µM
In short: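 Step 1: APE1 (0.75 nM) with compound, 15 min RT. Step 2: add 50 nM fluorophore/quencher THF duplex. Step 3: three fluorescence reads 60 s apart (525/598 nm); read 3 minus read 1 = reaction progress.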
Potency is read from the fitted curve at half-maximal effect.

Question: `COc1cc(NC(=O)CSc2nnc(Cn3nnc4ccccc43)n2C)cc(OC)c1` was tested. Which Potency did it give?
Answer: inconclusive: 44.7 µM [inhibitor, single point]

Question: With `CCOC(=O)C1CCCc2c1[nH]c1c(C(N)=O)cccc21` (stereo unspecified) as the compound, how does the Potency read?
Answer: inconclusive: 7.94 µM [inhibitor, single point]

Question: `CCOC(=O)N1CCN(c2nc(=S)n(-c3ccccc3)c(C)c2C(C)=O)CC1` was tested. Which Potency did it give?
Answer: inconclusive: 0.0141 µM [inhibitor, full curve]

Question: Which Potency does the source give for `O=C(/C=C/c1cccs1)Nc1scc(-c2ccccc2)c1C(=O)O` here?
Answer: inconclusive: 35.5 µM [inhibitor, single point]

Question: Which Potency does the source give for `O=C(CCN1C(=O)/C(=C/c2ccc(Cl)cc2)SC1=S)Nc1cccc(C(=O)O)c1` here?
Answer: inconclusive: 23.8 µM [inhibitor, single point]

Question: How did the Potency turn out when `CCCN1C(=O)c2cc(C(=O)O)ccc2C1O` (stereo unspecified) was run?
Answer: inconclusive: 22.4 µM [inhibitor, partial curve, poor fit]

Question: Which Potency does the source give for `CCOC(=O)Cn1c(=NC(=O)c2cc(-c3cccs3)nc3ccccc23)sc2cc(S(N)(=O)=O)ccc21` here?
Answer: inconclusive: 39.8 µM [inhibitor, single point]

Question: How did the Potency turn out when `CCC12CCCN3CCc4c(n(c5ccccc45)C(O)(C(=O)OC)C1)C32` (stereo unspecified) was run?
Answer: inconclusive: 7.94 µM [inhibitor, single point]

Question: With `CC(C)Cn1c(=O)c(C(=O)Nc2cnccn2)c(O)c2ccccc21` as the compound, how does the Potency read?
Answer: inconclusive: 0.0398 µM [inhibitor, full curve, poor fit]

Question: `O=C(NCc1ccco1)c1ccc(Cl)nc1` was tested. Which Potency did it give?
Answer: inconclusive: 4.47 µM [inhibitor, partial curve]

Question: Which Potency does the source give for `O=C1NCC(O)=C1C=Nc1ccccc1O` here?
Answer: inactive

Question: For `CNC(=O)c1sc2nc(-c3ccc(OC)cc3)cn2c1C`, which Potency is on record?
Answer: inconclusive: 7.94 µM [inhibitor, partial curve, poor fit]

Question: For `CC1(C)Cc2cccc(OCC(=O)OCC(=O)c3ccccc3)c2O1`, which Potency is on record?
Answer: inactive

Question: With `COc1ccc2oc(=O)c(-c3csc(Nc4cccc(O)c4)n3)cc2c1` as the compound, how does the Potency read?
Answer: inconclusive: 11.2 µM [inhibitor, partial curve, poor fit]

Question: Which Potency does the source give for `COc1ccc(NC(=O)Nc2nnc(N3CCCCC3C)s2)cc1OC` (stereo unspecified) here?
Answer: inconclusive: 2.51 µM [inhibitor, partial curve, poor fit]

Question: With `CCCCN(C(=O)c1cccc(N2C(=O)c3ccccc3C2=O)c1)c1c(N)n(CC(C)C)c(=O)[nH]c1=O` as the compound, how does the Potency read?
Answer: inactive

Question: With `CC(C)(C)c1ccc(/C=N/Nc2nncn2N)cc1` as the compound, how does the Potency read?
Answer: inconclusive: 5.32 µM [inhibitor, single point]

Question: With `CCOc1ccc2nc(SCC(=O)Nc3ccc(S(=O)(=O)N4CCCC4)cc3)c(C)cc2c1` as the compound, how does the Potency read?
Answer: inactive

Question: How did the Potency turn out when `COc1cc(/C=C2\COC/C(=C\c3ccc(O)c(OC)c3)C2=O)ccc1O` was run?
Answer: inactive

Question: `S=C(NCCN1CCOCC1)N/N=C/c1cccs1` was tested. Which Potency did it give?
Answer: inactive

Question: `CC(C)(C)n1ncc2c(=O)n(Cc3ccc(Cl)c(F)c3)cnc21` was tested. Which Potency did it give?
Answer: inconclusive: 3.55 µM [inhibitor, single point]

Question: With `O=C(O)/C=C/C(=O)Nc1ccc(-n2ccc(C(F)(F)F)n2)cc1` as the compound, how does the Potency read?
Answer: inconclusive: 3.98 µM [inhibitor, single point]

Question: For `CC1CC1C(=O)OCC(=O)Nc1cccc(S(=O)(=O)NC2=NCCCCC2)c1` (stereo unspecified), which Potency is on record?
Answer: inconclusive: 0.141 µM [inhibitor, full curve]

Question: For `O=C(CCCCn1c(=O)[nH]c2ccccc2c1=O)N1CCN(c2ncccn2)CC1`, which Potency is on record?
Answer: inconclusive: 4.47 µM [inhibitor, partial curve, poor fit]

Question: For `COc1ccc(-c2csc(NC(=O)C3CC(=O)N(Cc4ccccc4)C3)n2)cc1OC` (stereo unspecified), which Potency is on record?
Answer: inactive

Question: How did the Potency turn out when `O=C(Nc1ccc2c(c1)CCC2)c1cccc(S(=O)(=O)N2CCN(c3ccccc3)CC2)c1` was run?
Answer: inconclusive: 20 µM [inhibitor, partial curve, poor fit]

Question: For `CC(C)(C)n1cnnc1Sc1ncccc1[N+](=O)[O-]`, which Potency is on record?
Answer: inactive

Question: Which Potency does the source give for `COc1ccc(OCC(=O)Nc2nnc(-c3ccco3)s2)cc1` here?
Answer: inconclusive: 28.2 µM [inhibitor, partial curve, poor fit]

Question: For `CC1=CC(c2ccccc2)n2nc(N3C(=O)c4ccccc4C3=O)nc2N1` (stereo unspecified), which Potency is on record?
Answer: inactive

Question: `O=C(O)c1ccccc1NN=C1CCCCC1` was tested. Which Potency did it give?
Answer: inconclusive: 17.8 µM [inhibitor, single point]

Question: `O=C1c2cccc3cc([N+](=O)[O-])cc(c23)C(=O)N1CCN1CCCC1` was tested. Which Potency did it give?
Answer: inconclusive: 14.1 µM [inhibitor, partial curve]

Question: For `Oc1ccc(/C=N/Nc2ccnc3cc(Cl)ccc23)c(O)c1`, which Potency is on record?
Answer: inconclusive: 20 µM [inhibitor, partial curve]

Question: With `C#CCOCCOCCOCCNc1nc(N2CCN(C(=O)[C@H]([C@@H](C)O)n3cc(CCCCN)nn3)CC2)nc(N2CCN(C(=O)[C@H]([C@@H](C)CC)n3cc(CCCN=C(N)N)nn3)CC2)n1` as the compound, how does the Potency read?
Answer: inconclusive: 3.55 µM [inhibitor, partial curve]

Question: For `CN(CCO)c1nc(N)c2c(N)nc3c(c2c1C#N)CC(=O)N3C1CCCC1`, which Potency is on record?
Answer: inconclusive: 39.8 µM [inhibitor, partial curve, poor fit]

Question: How did the Potency turn out when `CCCCCCCCCCCC1=C(O)C(=O)C=C(O)C1=O` was run?
Answer: inconclusive: 35.5 µM [inhibitor, partial curve]

Question: For `O=C1C2CC=C(Cl)CC2C(=O)N1CCCCCCN1C(=O)C2CC=C(Cl)CC2C1=O` (stereo unspecified), which Potency is on record?
Answer: active: 31.6 µM

Question: For `COc1cccc2c(SCC(=O)N/N=C/c3ccc(O)c(O)c3)cc(C)nc12`, which Potency is on record?
Answer: active: 8.91 µM

Question: For `Cc1c(Nc2nc(-c3ccc(Cl)cc3)cs2)c(=O)n(-c2ccccc2)n1C`, which Potency is on record?
Answer: inconclusive: 22.4 µM [inhibitor, partial curve, poor fit]

Question: How did the Potency turn out when `Cc1nc2ccc(NC(=O)CCS(=O)(=O)c3ccccc3)cc2s1` was run?
Answer: inconclusive: 44.7 µM [inhibitor, single point]

Question: Which Potency does the source give for `CC(C)CNc1nc(C#N)nc(Nc2ccccc2)n1` here?
Answer: inactive

Question: How did the Potency turn out when `O=C1CC(c2ccccc2)Cc2nc(NC3CC3)ncc21` (stereo unspecified) was run?
Answer: inconclusive: 3.55 µM [inhibitor, single point]

Question: How did the Potency turn out when `COc1ccccc1NC(=O)COC(=O)Cc1ccc(S(=O)(=O)N2CCCCC2)s1` was run?
Answer: inconclusive: 1.12 µM [inhibitor, full curve]

Question: `CCOC(=O)c1c(-c2ccc(C)cc2)csc1NC(=O)c1cc2ccccc2oc1=O` was tested. Which Potency did it give?
Answer: inactive

Question: With `C/C=C/C(=O)[C@@H](C)[C@@H](/C=C/C[Si](C)(C)C)c1ccccc1` as the compound, how does the Potency read?
Answer: inconclusive: 20 µM [inhibitor, single point]

Question: `CN1C(=O)c2ccc(C(=O)NCc3ccc4c(c3)OCO4)cc2C1=O` was tested. Which Potency did it give?
Answer: inconclusive: 28.2 µM [inhibitor, single point]

Question: With `Cc1c(OCc2ccc(C(=O)O)o2)ccc2c3c(c(=O)oc12)CCC3` as the compound, how does the Potency read?
Answer: inconclusive: 25.1 µM [inhibitor, single point]

Question: How did the Potency turn out when `CCCOc1ccc(-c2csc(NC(=O)CN3C(=O)CCC3=O)n2)cc1` was run?
Answer: inconclusive: 8.91 µM [inhibitor, single point]

Question: For `O=C1CCCC2=C1C(c1ccc(O)c(O)c1)Nc1ccc3ncccc3c12` (stereo unspecified), which Potency is on record?
Answer: active: 14.1 µM

Question: With `C=CCNC(=O)c1cc2c(=O)c3ccccc3oc2nc1C` as the compound, how does the Potency read?
Answer: inactive

Question: For `Cc1ccccc1NS(=O)(=O)c1ccc2[nH]cc(C(=O)N(C)Cc3ccco3)c(=O)c2c1`, which Potency is on record?
Answer: active: 35.5 µM

Question: How did the Potency turn out when `CC(C)(C)c1nnc(N/N=C/c2cc(Br)ccc2O)n(N)c1=O` was run?
Answer: inactive

Question: For `CCOc1ccc(NC(=O)COC(=O)Cc2ccc(S(=O)(=O)N3CCOCC3)s2)cc1`, which Potency is on record?
Answer: inconclusive: 31.6 µM [inhibitor, single point]

Question: How did the Potency turn out when `C/C=C1/C(=O)C[C@H]2[C@@H]3CCC4=CC(=O)CC[C@]4(C)[C@H]3CC[C@]12C` was run?
Answer: inactive

Question: `CC1(C)CC(=O)C2=C(C1)N1C(=C(C#N)C2c2ccccc2Cl)N=C(N)c2ccccc21` (stereo unspecified) was tested. Which Potency did it give?
Answer: inconclusive: 3.98 µM [inhibitor, single point]

Question: For `NC(=O)C1(c2ccccc2)CCCN1C(=O)c1ccc(Br)cc1` (stereo unspecified), which Potency is on record?
Answer: inconclusive: 25.1 µM [inhibitor, single point]

Question: Which Potency does the source give for `Cc1ccn2cc(CC(=O)O)nc2c1` here?
Answer: inconclusive: 35.5 µM [inhibitor, partial curve]

Question: `c1ccc2c(c1)Cc1cc3ccccc3nc1-2` was tested. Which Potency did it give?
Answer: inconclusive: 31.6 µM [inhibitor, partial curve]

Question: `CCOC(=O)c1cnc(-n2cc(C)cn2)nc1NCc1ccc2c(c1)OCO2` was tested. Which Potency did it give?
Answer: inconclusive: 39.8 µM [inhibitor, single point]

Question: Which Potency does the source give for `CC(=O)OC1CC(OC(C)=O)[C@]2(C)C(CC(OC(C)=O)[C@@]3(C)C4=CC(=O)OC(c5ccoc5)[C@]4(C)CCC32)C1(C)C` (stereo partly specified) here?
Answer: inconclusive: 35.5 µM [inhibitor, single point]

Question: Which Potency does the source give for `O=C(O)c1ccc(N/N=C/c2cc3cc4c(cc3nc2Cl)OCCO4)cc1` here?
Answer: inconclusive: 31.6 µM [inhibitor, single point]

Question: How did the Potency turn out when `O=C(N/N=C/c1ccco1)c1cccc(N2Cc3ccccc3C2)c1` was run?
Answer: inconclusive: 44.7 µM [inhibitor, single point]

Question: `Cc1cccc(C)c1OCCCCCNCCO` was tested. Which Potency did it give?
Answer: inconclusive: 31.6 µM [inhibitor, single point]

Question: How did the Potency turn out when `O=C(NC1(O)C(=O)c2ccccc2C1=O)c1c(Cl)cccc1Cl` was run?
Answer: inconclusive: 28.2 µM [inhibitor, single point]

Question: With `Cc1ccc(CSC2=Nc3ccccc3C3=NC(CCC(=O)NCc4ccco4)C(=O)N23)cc1` (stereo unspecified) as the compound, how does the Potency read?
Answer: inactive

Question: How did the Potency turn out when `CCOC(=O)C1(N(CC)CC)Sc2cc(C)ccc2NC1=O` (stereo unspecified) was run?
Answer: inconclusive: 50.1 µM [inhibitor, partial curve, poor fit]

Question: `COc1ccc(CO/N=C/c2c(C)[nH]c(=O)[nH]c2=O)cc1` was tested. Which Potency did it give?
Answer: inactive
